Measured values taken from PubChem BioAssay AID256 (DTP/NCI, 2004).
The list shows only some results of the screen, not a fair sample: it is rich in T/C values a quarter to a half above the control, in often repeated tests (any T/C) and in doses without a T/C. Further doses and runs are listed elsewhere. T/C gives the treated animals as a percentage of the vehicle group. Some doses have a count of surviving animals in place of a T/C: the source files T/C as zero there, which appears to mark a toxic dose or a test without result, not a measured value. Some survivor counts are full or nearly so, which does not show that the dose was tolerated: the source hardly ever lists a survival T/C far under the control, and the zero likely stands for such cases as well. Survivors were counted at the toxicity check, usually on the fifth day, unless a day is given; later deaths do not show. Schedule codes are those of the source, taken here to give the interval after Q, in days (D) or hours (H), and the number of doses after X. Some doses were run more than once; the results are listed from low to high. For survival time, the PubChem record calls one and a half times the control and up active, and a quarter to a half above the control has no call in these data; cut-offs in other NCI protocols can differ. Some T/C values carry the count of animals alive at the toxicity check (mostly the fifth day); without a count, all were alive then.

Test system: CD2F1 mice, L1210 leukemia ip, survival T/C
Assay: NCI In Vivo Anticancer Drug Screen. Data for tumor model L1210 Leukemia (intraperitoneal) in CD2F1 (CDF1) mice
Conditions: higher T/C = longer survival
Outline: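 Activity against a transplanted murine tumor was judged by comparing the compound group with a vehicle group. The outcome in the treated animals was divided by that in the controls.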

[1] = T/C endpoint: mean survival time, dose: 100.0 mg/kg/injection, schedule: Q04DX002 (ip), vehicle: other
[2] = T/C endpoint: mean survival time, dose: 400.0 mg/kg/injection, schedule: Q04DX003 (ip), vehicle: saline with Tween-80

In the case of `COc1ccc(C(=O)C(CN(C)C)CN(C)C)cc1`, the survivor count (T/C endpoint: median survival time, dose: 50.0 mg/kg/injection, schedule: Q01DX009 (ip), vehicle: saline) is reported as 1 of 6.

In the case of `CCOC/C(O)=C(\C#N)c1ccc(Cl)cc1`, the survivor count (T/C endpoint: mean survival time, dose: 100.0 mg/kg/injection, schedule: Q01DX001 (ip), vehicle: other) is reported as 3 of 6, the T/C [1] is reported as 86 and 95 % of control [5 of 6 alive] and the survivor count [1] is reported as 1 of 3 and 4 of 6. For the same molecule, the survivor count (T/C endpoint: mean survival time, dose: 200.0 mg/kg/injection, schedule: Q04DX002 (ip), vehicle: other) was 0 of 3 and 1 of 6 and the survivor count (T/C endpoint: mean survival time, dose: 400.0 mg/kg/injection, schedule: Q04DX002 (ip), vehicle: other) was 0 of 3 and 2 of 6.

For `COc1ccc(NC(=O)C(Cl)Cl)ccc1=O`, the survivor count (T/C endpoint: mean survival time, dose: 400.0 mg/kg/injection, schedule: Q01DX009 (ip), vehicle: saline with Tween-80) was 3 of 6.

In the case of `O=C(O)c1cc(Br)c(Br)s1`, the survivor count [2] is reported as 0 of 6.

For `CC(C)(C)C1=CC(=O)C(C#N)=C(C#N)C1=O`, the survivor count (T/C endpoint: mean survival time, dose: 50.0 mg/kg/injection, schedule: Q01DX009 (ip), vehicle: saline with Tween-80) was 3 of 6 and the survivor count (T/C endpoint: mean survival time, dose: 100.0 mg/kg/injection, schedule: Q01DX009 (ip), vehicle: saline with Tween-80) was 0 of 6.

For `CCCCN=[N+]=[N-]`, the survivor count (T/C endpoint: mean survival time, dose: 50.0 mg/kg/injection, schedule: Q01DX009 (ip), vehicle: water) was 6 of 6 and the survivor count (T/C endpoint: mean survival time, dose: 400.0 mg/kg/injection, schedule: Q01DX009 (ip), vehicle: water) was 6 of 6.

With `O=S(=O)(O)c1ccc(-c2ccc(S(=O)(=O)O)cc2)cc1` (tested in a mixture with another compound) the T/C (T/C endpoint: mean survival time, dose: 6.3 mg/kg/injection, schedule: Q01DX009 (ip), vehicle: saline) was 128 % of control, the T/C (T/C endpoint: mean survival time, dose: 12.5 mg/kg/injection, schedule: Q01DX009 (ip), vehicle: saline, evaluated on day 30) was 144 % of control and the T/C (T/C endpoint: mean survival time, dose: 12.5 mg/kg/injection, schedule: Q01DX009 (ip), vehicle: saline, evaluated on day 60) was 141 % of control. For the same molecule, the T/C (T/C endpoint: mean survival time, dose: 12.5 mg/kg/injection, schedule: Q04DX003 (ip), vehicle: saline, evaluated on day 30) was 128 % of control, the T/C (T/C endpoint: mean survival time, dose: 12.5 mg/kg/injection, schedule: Q04DX003 (ip), vehicle: saline, evaluated on day 60) was 130 % of control and the T/C (T/C endpoint: mean survival time, dose: 25.0 mg/kg/injection, schedule: Q01DX001 (ip), vehicle: saline, evaluated on day 30) was 126 and 128 % of control. For the same molecule, the T/C (T/C endpoint: mean survival time, dose: 25.0 mg/kg/injection, schedule: Q01DX001 (ip), vehicle: saline, evaluated on day 60) was 134 % of control, the T/C (T/C endpoint: mean survival time, dose: 25.0 mg/kg/injection, schedule: Q04DX003 (ip), vehicle: saline, evaluated on day 30) was 130 and 143 % of control and the T/C (T/C endpoint: mean survival time, dose: 25.0 mg/kg/injection, schedule: Q04DX003 (ip), vehicle: saline, evaluated on day 60) was 145 % of control. The T/C (T/C endpoint: mean survival time, dose: 50.0 mg/kg/injection, schedule: Q01DX001 (ip), vehicle: saline) was 138 and 140 % of control, the T/C (T/C endpoint: mean survival time, dose: 100.0 mg/kg/injection, schedule: Q01DX001 (ip), vehicle: saline, evaluated on day 30) was 143, 164, 237 % of control and the T/C (T/C endpoint: mean survival time, dose: 100.0 mg/kg/injection, schedule: Q01DX001 (ip), vehicle: saline, evaluated on day 60) was 188 % of control. For the same molecule, the survivor count (T/C endpoint: mean survival time, dose: 100.0 mg/kg/injection, schedule: Q01DX009 (ip), vehicle: saline) was 6 of 6, the T/C (T/C endpoint: mean survival time, dose: 200.0 mg/kg/injection, schedule: Q01DX001 (ip), vehicle: saline, evaluated on day 30) was 205, 213, 313 % of control and the T/C (T/C endpoint: mean survival time, dose: 200.0 mg/kg/injection, schedule: Q01DX001 (ip), vehicle: saline, evaluated on day 60) was 492 % of control. For the same molecule, the survivor count (T/C endpoint: mean survival time, dose: 200.0 mg/kg/injection, schedule: Q01DX009 (ip), vehicle: saline) was 0 of 6, 5 of 8, 4 of 6, the survivor count (T/C endpoint: mean survival time, dose: 200.0 mg/kg/injection, schedule: Q04DX003 (ip), vehicle: saline) was 6 of 6 and 8 of 8 and the survivor count (T/C endpoint: mean survival time, dose: 400.0 mg/kg/injection, schedule: Q01DX001 (ip), vehicle: saline) was 0 of 6 and 0 of 8.

`Nc1nc(N)c(N)c(/C=C/c2ccccc2)n1` was tested, and the survivor count (T/C endpoint: mean survival time, dose: 10.0 mg/kg/injection, schedule: Q01DX009 (ip), vehicle: water) was 1 of 6.

With `NC(=O)c1cn(C2OC(CO)CC2O)c2ncnc(N)c12` (stereo not given) the T/C (T/C endpoint: mean survival time, dose: 4.0 mg/kg/injection, schedule: Q01DX009 (ip), vehicle: water) was 128 % of control, the T/C (T/C endpoint: mean survival time, dose: 16.0 mg/kg/injection, schedule: Q01DX009 (ip), vehicle: water) was 127 % of control and the T/C (T/C endpoint: mean survival time, dose: 64.0 mg/kg/injection, schedule: Q01DX009 (ip), vehicle: water) was 144 % of control.

`CCc1c(Cl)c(C)c(Cl)c(O)c1Cl` was tested, and the survivor count [2] was 0 of 3.
